{"source": "PubChem BioAssay AID248", "about": "(DTP/NCI, 2004)", "system": "L1210 leukemia ip in BDF1 mice, survival T/C", "assay": "NCI In Vivo Anticancer Drug Screen. Data for tumor model L1210 Leukemia (intraperitoneal) in B6D2F1 (BDF1) mice", "conditions": "T/C endpoint: mean survival time, higher T/C = longer survival", "key": {"[1]": {"conditions": "dose: 400.0 mg/kg/injection, schedule: Q04DX003 (ip), vehicle: Klucel (hydroxypropylcellulose) (HPC)"}, "[2]": {"conditions": "dose: 400.0 mg/kg/injection, schedule: Q01DX001 (ip), vehicle: carboxymethylcellulose (CMC)"}, "[3]": {"conditions": "dose: 200.0 mg/kg/injection, schedule: Q04DX002 (ip), vehicle: Klucel (hydroxypropylcellulose) (HPC)"}, "[4]": {"conditions": "dose: 400.0 mg/kg/injection, schedule: Q01DX009 (ip), vehicle: Klucel (hydroxypropylcellulose) (HPC)"}, "[5]": {"conditions": "dose: 100.0 mg/kg/injection, schedule: Q01DX001 (ip), vehicle: carboxymethylcellulose (CMC)"}, "[6]": {"conditions": "dose: 200.0 mg/kg/injection, schedule: Q01DX001 (ip), vehicle: carboxymethylcellulose (CMC)"}, "[7]": {"conditions": "dose: 400.0 mg/kg/injection, schedule: Q04DX003 (ip), vehicle: saline with Tween-80"}}, "note": "The list shows only some results of the screen, not a fair sample: it is rich in T/C values a quarter to a half above the control, in often repeated tests (any T/C) and in doses without a T/C. Other doses and runs of a compound stand elsewhere. T/C: endpoint of the treated group in % of that of the vehicle group. Some entries give survivors of the animals treated and no T/C: the source files T/C as zero there, which appears to mark a toxic dose or a test without result, not a measured value. Some survivor counts are full or nearly so, which does not show that the dose was tolerated: the source hardly ever lists a survival T/C far under the control, and the zero likely stands for such cases as well. Counts of survivors are from the toxicity check (mostly the fifth day) where no day follows; animals may have died later. Schedules are NCI's codes, taken here to give the interval after Q, in days (D) or hours (H), and the number of doses after X. Some doses were run more than once; the results are listed from low to high. Where survival is the endpoint, the PubChem record calls one and a half times the control and up active, and a quarter to a half above the control has no call in these data; cut-offs in other NCI protocols can differ. Some T/C values carry the count of animals alive at the toxicity check (mostly the fifth day); where none is given, no animal had died by that day.", "data": [{"smiles": "O=NN(CCCl)C(=O)NC1CCC(CC(=O)O)CC1", "note": "(stereo not drawn)", "values": [{"measurement": "T/C", "setting": "dose: 8.0 mg/kg/injection, schedule: Q01DX001 (ip), vehicle: Klucel (hydroxypropylcellulose) (HPC)", "value": "144 % of control"}, {"measurement": "T/C", "setting": "dose: 10.0 mg/kg/injection, schedule: Q01DX001 (ip), vehicle: carboxymethylcellulose (CMC)", "value": "135 and 142 % of control"}, {"measurement": "survivor count", "setting": "dose: 90.0 mg/kg/injection, schedule: Q01DX001 (ip), vehicle: Klucel (hydroxypropylcellulose) (HPC)", "value": "9 of 10 and 10 of 10"}, {"measurement": "survivor count", "setting": "dose: 90.0 mg/kg/injection, schedule: Q01DX001 (ip), vehicle: carboxymethylcellulose (CMC)", "value": "9 of 10"}, {"measurement": "survivor count", "setting": "dose: 133.0 mg/kg/injection, schedule: Q01DX001 (ip), vehicle: Klucel (hydroxypropylcellulose) (HPC)", "value": "4 of 10"}, {"measurement": "survivor count", "setting": "dose: 200.0 mg/kg/injection, schedule: Q01DX001 (ip), vehicle: Klucel (hydroxypropylcellulose) (HPC)", "value": "0 of 10"}, {"measurement": "survivor count", "setting": "dose: 300.0 mg/kg/injection, schedule: Q01DX001 (ip), vehicle: Klucel (hydroxypropylcellulose) (HPC)", "value": "0 of 10"}]}, {"smiles": "c1ccc([P+]2(Cc3cccc4ccccc34)CCc3[nH]c4ccccc4c3C2)cc1", "note": "(stereo not drawn)", "values": [{"measurement": "survivor count", "setting": "[1]", "value": "6 of 6"}]}, {"smiles": "COc1ccc(CN(C)C)c(C(O)c2ccccc2)c1", "note": "(stereo not drawn)", "values": [{"measurement": "survivor count", "setting": "[2]", "value": "0 of 4"}]}, {"smiles": "COc1ccc(OC)c2c1C=CCC=C2", "values": [{"measurement": "survivor count", "setting": "dose: 400.0 mg/kg/injection, schedule: Q04DX003 (ip), vehicle: acetone", "value": "6 of 6"}]}, {"smiles": "COc1cc2c(cc1OC)C(CN)C2", "note": "(stereo not drawn)", "values": [{"measurement": "survivor count", "setting": "dose: 400.0 mg/kg/injection, schedule: Q04DX003 (ip), vehicle: saline", "value": "0 of 6"}]}, {"smiles": "CCCCCCCCC1NC1CCCCCCCC", "note": "(stereo not drawn)", "values": [{"measurement": "survivor count", "setting": "dose: 100.0 mg/kg/injection, schedule: Q04DX002 (ip), vehicle: saline with Tween-80", "value": "3 of 3"}, {"measurement": "survivor count", "setting": "dose: 200.0 mg/kg/injection, schedule: Q04DX002 (ip), vehicle: saline with Tween-80", "value": "1 of 3"}, {"measurement": "survivor count", "setting": "dose: 400.0 mg/kg/injection, schedule: Q04DX002 (ip), vehicle: other", "value": "0 of 3"}, {"measurement": "survivor count", "setting": "dose: 400.0 mg/kg/injection, schedule: Q04DX002 (ip), vehicle: saline with Tween-80", "value": "0 of 3"}]}, {"smiles": "CCOC(=O)CNC(=O)Nc1ccccc1F", "values": [{"measurement": "T/C", "setting": "dose: 100.0 mg/kg/injection, schedule: Q01DX009 (ip), vehicle: gum acacia", "value": "96, 98, 103, 106 % of control"}, {"measurement": "T/C", "setting": "dose: 200.0 mg/kg/injection, schedule: Q01DX009 (ip), vehicle: gum acacia", "value": "94, 96, 98, 107 % of control"}]}, {"smiles": "CCOC=NC1=C(Cl)C(=O)C(N=COCC)=C(Cl)C1=O", "values": [{"measurement": "survivor count", "setting": "[1]", "value": "5 of 6"}]}, {"smiles": "O=C1OC(c2cccc(Cl)c2)=N/C1=C\\c1ccccc1", "values": [{"measurement": "survivor count", "setting": "[3]", "value": "3 of 3"}]}, {"smiles": "c1ccc2c(c1)ccc1cc3cccc[n+]3cc12", "values": [{"measurement": "survivor count", "setting": "dose: 2.5 mg/kg/injection, schedule: Q01DX009 (ip), vehicle: saline", "value": "3 of 6"}, {"measurement": "survivor count", "setting": "dose: 5.0 mg/kg/injection, schedule: Q01DX009 (ip), vehicle: saline", "value": "0 of 6 and 6 of 6"}, {"measurement": "survivor count", "setting": "dose: 10.0 mg/kg/injection, schedule: Q01DX009 (ip), vehicle: saline", "value": "4 of 6"}, {"measurement": "survivor count", "setting": "dose: 20.0 mg/kg/injection, schedule: Q01DX009 (ip), vehicle: saline", "value": "0 of 6"}, {"measurement": "survivor count", "setting": "dose: 20.0 mg/kg/injection, schedule: Q04DX003 (ip), vehicle: saline", "value": "5 of 6"}]}, {"smiles": "CC(=O)n1c(N)nc2ccccc21", "values": [{"measurement": "survivor count", "setting": "[4]", "value": "5 of 6"}]}, {"smiles": "COc1ccc2c(c1O)-c1cc(O)cc3c1C(C2)NCC3", "note": "(stereo not drawn)", "values": [{"measurement": "survivor count", "setting": "dose: 5.0 mg/kg/injection, schedule: Q04DX003 (ip), vehicle: DMSO", "value": "6 of 6"}, {"measurement": "survivor count", "setting": "dose: 10.0 mg/kg/injection, schedule: Q04DX003 (ip), vehicle: DMSO", "value": "4 of 6"}]}, {"smiles": "[NH-]c1ccccc1C(=O)O.[NH-]c1ccccc1C(=O)O.[Ni+2]", "values": [{"measurement": "survivor count", "setting": "dose: 100.0 mg/kg/injection, schedule: Q01DX009 (ip), vehicle: saline with Tween-80", "value": "3 of 6"}]}, {"smiles": "c1ccc(CCCn2cnc3cnccc32)cc1", "values": [{"measurement": "survivor count", "setting": "dose: 80.0 mg/kg/injection, schedule: Q01DX001 (ip), vehicle: saline", "value": "0 of 4"}, {"measurement": "survivor count", "setting": "dose: 200.0 mg/kg/injection, schedule: Q01DX001 (ip), vehicle: saline", "value": "0 of 4"}, {"measurement": "survivor count", "setting": "dose: 400.0 mg/kg/injection, schedule: Q01DX001 (ip), vehicle: saline", "value": "0 of 4"}]}, {"smiles": "Cc1ccc2c[c]1[Hg][CH2]COS2(=O)=O", "values": [{"measurement": "survivor count", "setting": "dose: 25.0 mg/kg/injection, schedule: Q04DX002 (ip), vehicle: Klucel (hydroxypropylcellulose) (HPC)", "value": "2 of 2"}, {"measurement": "survivor count", "setting": "dose: 50.0 mg/kg/injection, schedule: Q04DX002 (ip), vehicle: Klucel (hydroxypropylcellulose) (HPC)", "value": "3 of 3"}, {"measurement": "survivor count", "setting": "dose: 100.0 mg/kg/injection, schedule: Q04DX002 (ip), vehicle: Klucel (hydroxypropylcellulose) (HPC)", "value": "0 of 3"}, {"measurement": "survivor count", "setting": "[3]", "value": "0 of 3"}, {"measurement": "survivor count", "setting": "dose: 400.0 mg/kg/injection, schedule: Q04DX002 (ip), vehicle: Klucel (hydroxypropylcellulose) (HPC)", "value": "0 of 3"}]}, {"smiles": "NC(=O)NC(=O)COc1ccc(Cl)cc1Cl", "values": [{"measurement": "survivor count", "setting": "dose: 400.0 mg/kg/injection, schedule: Q04DX002 (ip), vehicle: saline + alcohol", "value": "0 of 3"}]}, {"smiles": "C/C(=N/NC(N)=S)c1cccc(C(F)(F)F)c1", "values": [{"measurement": "survivor count", "setting": "dose: 150.0 mg/kg/injection, schedule: Q01DX009 (ip), vehicle: Klucel (hydroxypropylcellulose) (HPC)", "value": "3 of 6"}]}, {"smiles": "COc1ccc(I)c([N+](=O)[O-])c1", "values": [{"measurement": "survivor count", "setting": "[4]", "value": "5 of 6"}]}, {"smiles": "CCN(CC)CCNc1ccc(CO)c2oc3cc(Cl)ccc3c(=O)c12", "values": [{"measurement": "survivor count", "setting": "dose: 250.0 mg/kg/injection, schedule: Q01DX009 (ip), vehicle: Klucel (hydroxypropylcellulose) (HPC)", "value": "3 of 6"}]}, {"smiles": "O=C(O)c1nc(SCc2ccccc2)n(Cc2ccccc2)c1C(=O)O", "values": [{"measurement": "T/C", "setting": "[5]", "value": "88, 91, 95, 99, 100 % of control"}, {"measurement": "survivor count", "setting": "[5]", "value": "3 of 3"}, {"measurement": "T/C", "setting": "[6]", "value": "88, 100 [4 of 6 alive], 102 % of control [2 of 3 alive]"}, {"measurement": "survivor count", "setting": "[6]", "value": "5 of 6 and 3 of 3"}, {"measurement": "T/C", "setting": "[2]", "value": "91, 91 [2 of 3 alive], 91 [4 of 6 alive], 95 [2 of 3 alive], 96, 98 % of control [5 of 6 alive]"}, {"measurement": "survivor count", "setting": "dose: 400.0 mg/kg/injection, schedule: Q04DX003 (ip), vehicle: carboxymethylcellulose (CMC)", "value": "1 of 3"}]}, {"smiles": "CC(CC(C)O)=NCCN=C(C)CC(C)O.[Ni]", "note": "(stereo not drawn)", "values": [{"measurement": "survivor count", "setting": "dose: 25.0 mg/kg/injection, schedule: Q01DX009 (ip), vehicle: saline with Tween-80", "value": "6 of 6"}]}, {"smiles": "Cc1cc(N(C)C)cc(C)c1N=Nc1cc[n+]([O-])cc1", "values": [{"measurement": "survivor count", "setting": "dose: 100.0 mg/kg/injection, schedule: Q04DX003 (ip), vehicle: saline with Tween-80", "value": "6 of 6"}, {"measurement": "survivor count", "setting": "dose: 200.0 mg/kg/injection, schedule: Q04DX003 (ip), vehicle: saline with Tween-80", "value": "1 of 6"}, {"measurement": "survivor count", "setting": "dose: 400.0 mg/kg/injection, schedule: Q01DX009 (ip), vehicle: saline with Tween-80", "value": "0 of 6"}, {"measurement": "survivor count", "setting": "[7]", "value": "0 of 6"}]}, {"smiles": "COCP(=O)(O)O", "values": [{"measurement": "survivor count", "setting": "dose: 400.0 mg/kg/injection, schedule: Q04DX002 (ip), vehicle: saline", "value": "1 of 3"}]}, {"smiles": "c1ccn(-c2nccs2)c1", "values": [{"measurement": "survivor count", "setting": "[7]", "value": "0 of 6"}]}]}
